From paper PMC2267068, “Comparative Analysis of Metal Binding Characteristics of Copper Chaperone Proteins, Atx1 and ATOX1” (Bioinorganic Chemistry and Applications, 2004)
Results are given in words; binding and its absence hold for the method and conditions named. Some entries that bind do so weakly or less than the wild type. For part of these data: Sequences can lack the tags named with a protein.

T1: ATOX1 (human copper chaperone), wild type (human), O00244
T1 chain: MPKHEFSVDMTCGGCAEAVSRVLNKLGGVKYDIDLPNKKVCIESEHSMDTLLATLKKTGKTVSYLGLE

T2: Atx1 (yeast copper chaperone) (yeast (Saccharomyces cerevisiae)), P38636
T2 chain: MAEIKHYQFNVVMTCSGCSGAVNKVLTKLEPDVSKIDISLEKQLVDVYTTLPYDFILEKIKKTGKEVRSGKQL

B1: ATOX1 (human copper chaperone), wild type, O00244 1-68 (natural protein)
chain: T1 chain
B2: Atx1 (yeast copper chaperone), P38636 1-73 (natural protein)
chain: T2 chain

Legend:
Settings in all cases: remark: other sources report otherwise
[1] = molecular target: T1, ATOX1 (human copper chaperone), wild …; assay: SDS-PAGE; 16% SDS-PAGE without or with 300 mM 2-mercaptoethanol in the sample buffer; 0.3 mM protein untreated, reduced (+DTT 3:1) or 1:1 metal/protein + DTT; the paper calls the experiment inconclusive as to the effects of the metals; both purified
[2] = molecular target: T1, ATOX1 (human copper chaperone), wild …; assay: SEC; Bio-Gel P-10 column; 1 mM ATOX1 + 2 mM Cu(II) + 3 mM DTT; first peak at the void volume, second peak at fraction 35-36; both purified
[3] = molecular target: T2, Atx1 (yeast copper chaperone) (yeast …); assay: SDS-PAGE; 16% SDS-PAGE without or with 300 mM 2-mercaptoethanol in the sample buffer; 0.3 mM protein untreated, reduced (+DTT 3:1) or 1:1 metal/protein + DTT; the paper calls the experiment inconclusive as to the effects of the metals; both purified

Row | Binder | binding [1] | binding [2] | binding [3]
1 | B1 | binds | binds | 
2 | B2 |  |  | binds
